From PubChem BioAssay AID1671190 (National Center for Advancing Translational Sciences (NCATS), 2021)
“And” between values parts separate entries of the source, which are not always exact repeats. Equal values may be shown once. The whole screen tested about 580,000 compounds, of which about 6,100 (1.1%) were called active. Inconclusive results, whose numbers are uncertain, are shown with a selection of clear calls. The call rests on the fitted dose curve; in most records, active means well fitted inhibition curve with a large enough effect; inconclusive means small, poorly fitted or top-dose-only effect, or another doubt; inactive means no such curve, though single readings can be large or run the other way. Potencies beside an inconclusive call are fits to weak or partial responses and may not hold up.

Chains of the proteins cited; added tags and fusions are not shown. Lines headed by an entry give the natural chain unless they say otherwise; changes in a name come on top.
UniProt P18054: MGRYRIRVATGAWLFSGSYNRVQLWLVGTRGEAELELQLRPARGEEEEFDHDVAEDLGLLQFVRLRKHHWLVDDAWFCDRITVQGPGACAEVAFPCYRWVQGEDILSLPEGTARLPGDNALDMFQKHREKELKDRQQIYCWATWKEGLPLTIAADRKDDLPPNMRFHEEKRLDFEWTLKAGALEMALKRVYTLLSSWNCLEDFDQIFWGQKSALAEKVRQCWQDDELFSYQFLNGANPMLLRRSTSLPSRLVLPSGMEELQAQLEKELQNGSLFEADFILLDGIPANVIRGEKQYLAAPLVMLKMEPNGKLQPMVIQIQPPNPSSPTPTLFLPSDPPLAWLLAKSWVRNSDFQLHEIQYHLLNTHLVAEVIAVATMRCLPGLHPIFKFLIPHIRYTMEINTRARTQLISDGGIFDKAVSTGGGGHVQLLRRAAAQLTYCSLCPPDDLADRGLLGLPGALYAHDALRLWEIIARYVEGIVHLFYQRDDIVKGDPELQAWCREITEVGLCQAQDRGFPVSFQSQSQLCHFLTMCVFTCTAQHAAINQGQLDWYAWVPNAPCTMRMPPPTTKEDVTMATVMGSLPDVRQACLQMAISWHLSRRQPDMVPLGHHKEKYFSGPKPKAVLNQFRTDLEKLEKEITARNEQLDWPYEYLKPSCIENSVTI

Molecular target: Polyunsaturated fatty acid lipoxygenase ALOX12 (Homo sapiens) (UniProt P18054)
Test: Primary qHTS assay for inhibitors of human arachidonate 12S-lipoxygenase (ALOX12): Round 2
Conditions: purified 12hLO, xylenol orange hydroperoxide absorbance; series mostly up to 108 µM
Summary of the method: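 Hydroperoxide product was detected by ferrous iron/xylenol orange as the 573 to 405 nm absorbance ratio. Arachidonic acid at 40 uM (final) was turned over for 30 min at room temperature by 150 nM human 12hLO, pH 7.0 Hepes buffer, after 15 min compound preincubation.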
Potency means the concentration at half of the fitted maximal effect.

Question: How did the Potency turn out when `O=C(Cc1ccc(Br)cc1)NCc1cccc(C(=O)Nc2ccccc2)c1` was run?
Answer: inactive

Question: With `Cc1cc2oc(=O)cc(CN3CCCc4ccccc43)c2cc1C` as the compound, how does the Potency read?
Answer: inconclusive: 8.91 µM [inhibitor, partial curve, poor fit]

Question: How did the Potency turn out when `CC(C)C[C@H]1CNC(=S)N1C[C@H]1CCCN1C[C@H](CC(C)C)N1C[C@H](Cc2ccc(O)cc2)N(CC2CCCCCC2)C1=S` was run?
Answer: inactive

Question: For `CCCCCCC(C)n1[nH]c(=O)c2c(C)cc(C)nc21` (stereo unspecified), which Potency is on record?
Answer: inactive

Question: With `COc1ccc2c(c1)CCC1=C2NC(=S)NC1c1ccc(N(C)C)cc1` (stereo unspecified) as the compound, how does the Potency read?
Answer: inconclusive: 39.8 µM [inhibitor, partial curve]

Question: With `COc1ccc(-n2cc(C(=O)Nc3ccc(F)c(F)c3)nn2)cc1` as the compound, how does the Potency read?
Answer: inactive

Question: How did the Potency turn out when `O=C(c1ccccc1)N1CCN(C(=O)c2nn3c(C(F)(F)F)cc(-c4ccco4)nc3c2Br)CC1` was run?
Answer: inconclusive: 89.1 µM [inhibitor, single point]

Question: `CCc1ccc(NC(=O)c2ccccc2SCC(=O)NCc2ccco2)cc1` was tested. Which Potency did it give?
Answer: active: 5.62 µM

Question: How did the Potency turn out when `Oc1[nH]c2ccccc2c1N=NC(=S)NCCc1ccccc1` was run?
Answer: inconclusive: 39.8 µM [inhibitor, partial curve]

Question: Which Potency does the source give for `CCNC(=O)NC(=O)C(C)OC(=O)Cc1c[nH]c2ccccc12` (stereo unspecified) here?
Answer: inactive

Question: How did the Potency turn out when `CCOC(=O)c1cnc(SCC(=O)c2ccc(Cl)cc2)nc1N` was run?
Answer: inconclusive: 25.1 µM [inhibitor, partial curve, poor fit]

Question: With `CN1/C(=C/C=C/c2n(C)c3cc([N+](=O)[O-])c([N+](=O)[O-])cc3[n+]2C)C(C)(C)c2ccccc21` as the compound, how does the Potency read?
Answer: inconclusive: 3.16 µM [inhibitor, full curve]

Question: For `COc1cc2c(cc1OC)C(c1ccccc1[N+](=O)[O-])N(C(C)=O)CC2` (stereo unspecified), which Potency is on record?
Answer: inconclusive: 100 µM [inhibitor, partial curve, poor fit]

Question: How did the Potency turn out when `COc1cc(/C=N/n2c(-c3n[nH]c4c3CCC4)n[nH]c2=S)ccc1O` was run?
Answer: inconclusive: 56.2 µM [inhibitor, partial curve, poor fit]

Question: How did the Potency turn out when `C/C(=N\NC(=O)c1cccnc1)c1c(O)cc(C)oc1=O` was run?
Answer: inactive

Question: Which Potency does the source give for `C=C(C)COc1ccc(-c2[nH]ncc2-c2ccc(OC)cc2)c(O)c1` here?
Answer: inconclusive: 70.8 µM [inhibitor, partial curve, poor fit]

Question: `O=C(COc1ncnc2ccc(Br)cc12)NCc1ccccc1` was tested. Which Potency did it give?
Answer: inactive

Question: Which Potency does the source give for `COc1ccc(C)cc1NC(=O)Cn1c(=O)cc(C)c2c(C)nn(C)c21` here?
Answer: inactive

Question: Which Potency does the source give for `O=C(O)C[C@@H]1CCN(C(=O)C2CCCC2)C[C@@H]1CCN1CCN(c2ccccn2)CC1` here?
Answer: inconclusive: 39.8 µM [inhibitor, partial curve, poor fit]

Question: With `CC1=C(C(=O)N(C)C)CC(CC(=O)NC(c2ccccc2)c2ccccc2)C(=O)N1Cc1ccc(C(C)(C)C)cc1` (stereo unspecified) as the compound, how does the Potency read?
Answer: inactive

Question: Which Potency does the source give for `COc1cccc(-c2cc3c(=O)n(CCNC(=O)c4ccc(C#N)cc4)ccn3n2)c1` here?
Answer: inconclusive: 12.6 µM [inhibitor, partial curve, poor fit]

Question: How did the Potency turn out when `O=C(NCC(c1ccco1)N1CCCCC1)c1ccc(COc2ccc(Cl)cc2)cc1` (stereo unspecified) was run?
Answer: inconclusive: 79.4 µM [inhibitor, partial curve, poor fit]

Question: `COC(=O)c1cc2c(ccn2-c2ccc(F)cc2)n1Cc1ccc(OC)cc1` was tested. Which Potency did it give?
Answer: inconclusive: 31.6 µM [inhibitor, partial curve]

Question: How did the Potency turn out when `Cc1cc2cc(C(c3nnnn3Cc3ccco3)N3CCc4ccccc43)c(=O)[nH]c2cc1C` (stereo unspecified) was run?
Answer: inconclusive: 31.6 µM [inhibitor, partial curve]

Question: Which Potency does the source give for `CN1CCN(CCC(=O)N/N=C/c2cc3c(cc2[N+](=O)[O-])OCO3)CC1` here?
Answer: inconclusive: 0.224 µM [inhibitor, full curve, poor fit]

Question: `CNC(=O)/C(C#N)=C/c1cccc(Oc2ccccc2)c1` was tested. Which Potency did it give?
Answer: inconclusive: 100 µM [inhibitor, single point]

Question: Which Potency does the source give for `CCc1ccccc1N(CC(=O)NC1CCCCC1)C(=O)CCCC(=O)Nc1ccccn1` here?
Answer: inconclusive: 141 µM [inhibitor, single point]

Question: For `COc1ccc(CNC(=O)C2(C)Cc3c(-c4ccccc4)ccnc3O2)cc1OC` (stereo unspecified), which Potency is on record?
Answer: inactive

Question: For `Cc1cc(Cl)ccc1NC(=O)CN1C(=O)C(=O)N(C2CCCC2)C1=O`, which Potency is on record?
Answer: inactive

Question: Which Potency does the source give for `COC(=O)c1ccc(C(=O)N2CCCC(Nc3ccc(C(C)C)cc3)C2)cc1` (stereo unspecified) here?
Answer: inconclusive: 50.1 µM [inhibitor, single point]

Question: `Cc1ccc(-c2cnc(SCCNC(=O)c3ccco3)[nH]2)cc1` was tested. Which Potency did it give?
Answer: inactive

Question: For `CCN(CC)CCCNC(=O)c1cn(CC)c2ccc(S(=O)(=O)N3CCc4ccccc4C3)cc2c1=O`, which Potency is on record?
Answer: inconclusive: 44.7 µM [inhibitor, partial curve, poor fit] and inconclusive: 50.1 µM [inhibitor, partial curve, poor fit]

Question: `Clc1cccc2c1CN(C1=NCCN1)C2` was tested. Which Potency did it give?
Answer: inconclusive: 7.08 µM [inhibitor, full curve]

Question: Which Potency does the source give for `CCCN(CC#N)CC(=O)NC(=O)NC(C)(C)C` here?
Answer: inconclusive: 158 µM [inhibitor, single point]

Question: `CN[C@H]1C[C@H]2c3[nH]c4cccc(-c5cccc(F)c5)c4c3CCN2C(=O)[C@H]1[C@H](C)O` was tested. Which Potency did it give?
Answer: inconclusive: 50.1 µM [inhibitor, partial curve, poor fit]

Question: How did the Potency turn out when `O=C(OCC(=O)C12CC3CC(CC(C3)C1)C2)c1ccccn1` was run?
Answer: inconclusive: 44.7 µM [inhibitor, partial curve, poor fit]

Question: `O=C(NC1CCCCC1)c1[nH]c2ccccc2c1Cl` was tested. Which Potency did it give?
Answer: inactive

Question: Which Potency does the source give for `CCCCOc1ccc(-c2nc(C3CC(=O)N(C4CCCCC4)C3)no2)cc1` (stereo unspecified) here?
Answer: inconclusive: 56.2 µM [inhibitor, partial curve, poor fit]

Question: For `CC(C)(C)OC(=O)N1O[C@H]2C[C@@H]1[C@@H]1[C@@H]2N=NN1C12CC3CC(CC(C3)C1)C2`, which Potency is on record?
Answer: inconclusive: 35.5 µM [inhibitor, single point]

Question: For `CN(Cc1ccc(F)cc1)Cc1ccnn1C`, which Potency is on record?
Answer: inactive

Question: For `Cn1cnnc1-c1nn(C)c2c1CN(C(=O)c1n[nH]c3ccccc13)CC2`, which Potency is on record?
Answer: inactive

Question: `O=C(O)c1cc(/C=C/c2csc(-c3ccccn3)n2)nc2cc(F)ccc12` was tested. Which Potency did it give?
Answer: inconclusive: 28.2 µM [inhibitor, partial curve, poor fit]

Question: With `COc1ccc(OC)c(C(=O)COC(=O)CCC(=O)c2ccc(Cl)cc2)c1` as the compound, how does the Potency read?
Answer: inconclusive: 44.7 µM [inhibitor, partial curve, poor fit]

Question: Which Potency does the source give for `CCc1nc2nc(C)c(NS(=O)(=O)c3cccs3)c(=O)n2[nH]1` here?
Answer: active: 6.31 µM

Question: Which Potency does the source give for `O=C(CSc1nc2cc([N+](=O)[O-])ccc2o1)Nc1ccc(F)c(F)c1` here?
Answer: inconclusive: 44.7 µM [inhibitor, partial curve]

Question: How did the Potency turn out when `CC(=O)c1c(C)[nH]c(C(=O)OCC(=O)N2CCN(c3ccccc3)CC2)c1C` was run?
Answer: inactive

Question: For `COc1ccc(C(=O)Oc2c(CN3CCOCC3)cc(Cl)c3cccnc23)cc1`, which Potency is on record?
Answer: inactive

Question: `O=C(c1ccco1)N1CC(Oc2cccc(-c3nc(-c4ccccc4)no3)c2)C1` was tested. Which Potency did it give?
Answer: inactive

Question: With `CCC1Nc2ncnc(N3CCOCC3)c2N(Cc2ccc(Br)cc2)C1=O` (stereo unspecified) as the compound, how does the Potency read?
Answer: inconclusive: 79.4 µM [inhibitor, single point]

Question: `CC1(C(=O)NCc2ccc(C(F)(F)F)cc2)CCN1Cc1ccc(-c2ccccc2)o1` (stereo unspecified) was tested. Which Potency did it give?
Answer: inconclusive: 89.1 µM [inhibitor, single point]

Question: `Cc1ccc(S(=O)(=O)/N=C(/NC(=S)Nc2ccccc2)c2ccccc2)cc1` was tested. Which Potency did it give?
Answer: inconclusive: 1.41 µM [inhibitor, partial curve, poor fit]

Question: Which Potency does the source give for `COc1ccc(CN(C)c2ccc(S(=O)(=O)N3CCN(C)CC3)cc2[N+](=O)[O-])cc1OC` here?
Answer: inconclusive: 50.1 µM [inhibitor, partial curve, poor fit]

Question: How did the Potency turn out when `N#C/C(C(=O)Nc1ccc(Cl)cc1)=C(/S)Nc1ccccc1` was run?
Answer: active: 1.78 µM

Question: With `COc1ccccc1C(=O)Nc1nnc(SCc2cc(=O)c3cc(Cl)ccc3[nH]2)s1` as the compound, how does the Potency read?
Answer: inconclusive: 112 µM [inhibitor, partial curve, poor fit]

Question: `Cn1cc(C(CC(=O)O)C(=O)O)c2ccccc21` (stereo unspecified) was tested. Which Potency did it give?
Answer: inconclusive: 44.7 µM [inhibitor, partial curve, poor fit]

Question: How did the Potency turn out when `CCOC(=O)N1CCN(c2cc(N3CCN(CC)CC3)c(F)cc2[N+](=O)[O-])CC1C` (stereo unspecified) was run?
Answer: inactive

Question: How did the Potency turn out when `NC(=O)[C@@H](Cc1c[nH]c2ccccc12)NC(=O)[C@@]1(O)C[C@@H](O)[C@H](O)[C@@H](NC(=O)NC2CCCCC2)C1` was run?
Answer: inactive

Question: How did the Potency turn out when `Cc1noc(NS(=O)(=O)c2ccc(NC(=O)CSc3nc4ccccc4s3)cc2)c1C` was run?
Answer: inconclusive: 50.1 µM [inhibitor, partial curve, poor fit]

Question: For `Cc1sc2ncnc(Nc3ccccc3)c2c1C`, which Potency is on record?
Answer: inactive

Question: Which Potency does the source give for `O=C(Cc1ccccn1)N1CCC2(C1)C(=O)N(CCc1ccccc1)c1ccccc12` (stereo unspecified) here?
Answer: inactive

Question: With `Cc1noc(C)c1CN1CC[C@@H]2OCC(=O)N(Cc3c[nH]c4ccccc34)[C@H]2CC1` as the compound, how does the Potency read?
Answer: inactive

Question: `Cc1ccc(N2NC(C)(c3cccs3)NC2=S)cc1` (stereo unspecified) was tested. Which Potency did it give?
Answer: inconclusive: 3.16 µM [inhibitor, full curve, poor fit]

Question: Which Potency does the source give for `Cc1nn(-c2ccccc2)nc1C(=O)N[C@H](C)c1onc(-c2cccnc2)c1C(=O)O` here?
Answer: inactive

Question: With `C/C(=N/NC(=O)c1ccc(C)cc1)C(C)(C)C` as the compound, how does the Potency read?
Answer: inactive

Question: How did the Potency turn out when `N#Cc1c(-c2ccccc2)cc(-c2ccc(O)cc2)nc1N` was run?
Answer: inconclusive: 44.7 µM [inhibitor, partial curve, poor fit]

Question: `O=C(Nc1ccc(F)cc1)c1ccccc1Oc1ccc(C(F)(F)F)cc1[N+](=O)[O-]` was tested. Which Potency did it give?
Answer: inconclusive: 158 µM [inhibitor, partial curve, poor fit]
